Data from patent US20240018118A1, “TRICYCLIC COMPOUNDS TO DEGRADE NEOSUBSTRATES FOR MEDICAL THERAPY” (C 4 Therapeutics, Inc., priority 2020, published 2024).
The match of structure and compound is tentative.

The chains behind the UniProt entries cited, without tags or fusion partners. Residues count along the entry.
UniProt Q96SW2, whole entry: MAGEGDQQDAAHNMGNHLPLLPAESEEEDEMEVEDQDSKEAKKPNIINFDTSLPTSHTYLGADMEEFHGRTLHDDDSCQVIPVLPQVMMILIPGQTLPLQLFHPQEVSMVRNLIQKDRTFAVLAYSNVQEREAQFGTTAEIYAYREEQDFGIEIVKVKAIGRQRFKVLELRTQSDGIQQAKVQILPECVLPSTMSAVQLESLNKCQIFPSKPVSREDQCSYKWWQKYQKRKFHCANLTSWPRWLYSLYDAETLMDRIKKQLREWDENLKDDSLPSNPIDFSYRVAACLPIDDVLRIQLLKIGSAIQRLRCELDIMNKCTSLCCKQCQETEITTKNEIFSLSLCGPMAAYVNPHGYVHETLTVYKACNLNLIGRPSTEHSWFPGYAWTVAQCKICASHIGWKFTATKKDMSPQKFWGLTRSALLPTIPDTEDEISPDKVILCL
UniProt Q9UJQ4, whole entry: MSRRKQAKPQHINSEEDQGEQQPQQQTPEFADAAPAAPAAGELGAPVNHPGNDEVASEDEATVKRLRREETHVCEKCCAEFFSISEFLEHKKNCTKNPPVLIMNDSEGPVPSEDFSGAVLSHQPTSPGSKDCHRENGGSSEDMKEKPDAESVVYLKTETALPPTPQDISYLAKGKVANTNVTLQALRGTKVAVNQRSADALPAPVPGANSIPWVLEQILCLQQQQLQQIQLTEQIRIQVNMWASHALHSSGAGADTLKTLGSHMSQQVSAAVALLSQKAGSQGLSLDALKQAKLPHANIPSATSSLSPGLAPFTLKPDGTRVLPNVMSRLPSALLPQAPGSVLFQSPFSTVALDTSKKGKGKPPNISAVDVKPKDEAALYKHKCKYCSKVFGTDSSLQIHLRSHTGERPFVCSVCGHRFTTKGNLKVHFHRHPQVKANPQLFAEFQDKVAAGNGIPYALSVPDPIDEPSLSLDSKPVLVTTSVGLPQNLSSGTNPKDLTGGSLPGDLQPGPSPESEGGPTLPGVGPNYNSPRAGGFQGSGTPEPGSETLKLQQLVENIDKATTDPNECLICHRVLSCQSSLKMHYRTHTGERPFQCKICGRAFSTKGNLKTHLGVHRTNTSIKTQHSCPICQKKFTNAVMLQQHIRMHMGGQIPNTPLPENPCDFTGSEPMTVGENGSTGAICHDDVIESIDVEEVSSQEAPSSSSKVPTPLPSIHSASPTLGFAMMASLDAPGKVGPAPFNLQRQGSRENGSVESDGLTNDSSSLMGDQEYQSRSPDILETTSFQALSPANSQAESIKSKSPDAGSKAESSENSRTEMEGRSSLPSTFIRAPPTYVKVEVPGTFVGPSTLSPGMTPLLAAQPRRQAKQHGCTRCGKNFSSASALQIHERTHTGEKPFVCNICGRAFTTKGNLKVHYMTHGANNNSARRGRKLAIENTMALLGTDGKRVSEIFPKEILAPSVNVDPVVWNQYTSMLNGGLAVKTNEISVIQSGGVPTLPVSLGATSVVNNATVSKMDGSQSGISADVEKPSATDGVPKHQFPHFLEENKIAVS
UniProt Q13422, whole entry: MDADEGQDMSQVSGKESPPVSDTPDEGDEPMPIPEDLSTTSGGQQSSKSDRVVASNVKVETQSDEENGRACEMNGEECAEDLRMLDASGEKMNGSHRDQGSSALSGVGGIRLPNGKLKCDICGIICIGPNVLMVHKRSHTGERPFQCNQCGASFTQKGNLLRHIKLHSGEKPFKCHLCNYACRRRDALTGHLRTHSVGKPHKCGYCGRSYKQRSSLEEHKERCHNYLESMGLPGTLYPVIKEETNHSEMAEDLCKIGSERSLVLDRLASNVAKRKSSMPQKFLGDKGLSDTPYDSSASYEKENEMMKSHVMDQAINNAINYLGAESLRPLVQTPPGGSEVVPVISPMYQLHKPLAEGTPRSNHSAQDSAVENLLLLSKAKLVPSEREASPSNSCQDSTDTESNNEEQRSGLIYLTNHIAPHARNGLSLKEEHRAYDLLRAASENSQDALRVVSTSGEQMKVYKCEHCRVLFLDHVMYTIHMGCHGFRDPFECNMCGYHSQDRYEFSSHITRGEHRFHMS
UniProt P15170, whole entry: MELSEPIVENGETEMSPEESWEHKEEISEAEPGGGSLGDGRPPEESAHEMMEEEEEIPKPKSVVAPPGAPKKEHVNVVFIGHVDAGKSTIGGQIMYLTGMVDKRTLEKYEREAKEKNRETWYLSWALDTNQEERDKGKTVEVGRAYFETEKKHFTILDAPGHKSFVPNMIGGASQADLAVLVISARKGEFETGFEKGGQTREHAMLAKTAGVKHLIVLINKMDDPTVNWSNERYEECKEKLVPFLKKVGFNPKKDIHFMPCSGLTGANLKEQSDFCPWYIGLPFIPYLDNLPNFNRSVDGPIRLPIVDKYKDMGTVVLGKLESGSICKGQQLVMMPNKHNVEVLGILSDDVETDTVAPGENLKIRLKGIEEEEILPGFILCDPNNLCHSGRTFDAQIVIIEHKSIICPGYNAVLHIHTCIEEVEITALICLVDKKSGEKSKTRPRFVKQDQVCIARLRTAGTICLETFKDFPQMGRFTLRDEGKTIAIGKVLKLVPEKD
UniProt Q16531, 2-1140 partner limits assumed: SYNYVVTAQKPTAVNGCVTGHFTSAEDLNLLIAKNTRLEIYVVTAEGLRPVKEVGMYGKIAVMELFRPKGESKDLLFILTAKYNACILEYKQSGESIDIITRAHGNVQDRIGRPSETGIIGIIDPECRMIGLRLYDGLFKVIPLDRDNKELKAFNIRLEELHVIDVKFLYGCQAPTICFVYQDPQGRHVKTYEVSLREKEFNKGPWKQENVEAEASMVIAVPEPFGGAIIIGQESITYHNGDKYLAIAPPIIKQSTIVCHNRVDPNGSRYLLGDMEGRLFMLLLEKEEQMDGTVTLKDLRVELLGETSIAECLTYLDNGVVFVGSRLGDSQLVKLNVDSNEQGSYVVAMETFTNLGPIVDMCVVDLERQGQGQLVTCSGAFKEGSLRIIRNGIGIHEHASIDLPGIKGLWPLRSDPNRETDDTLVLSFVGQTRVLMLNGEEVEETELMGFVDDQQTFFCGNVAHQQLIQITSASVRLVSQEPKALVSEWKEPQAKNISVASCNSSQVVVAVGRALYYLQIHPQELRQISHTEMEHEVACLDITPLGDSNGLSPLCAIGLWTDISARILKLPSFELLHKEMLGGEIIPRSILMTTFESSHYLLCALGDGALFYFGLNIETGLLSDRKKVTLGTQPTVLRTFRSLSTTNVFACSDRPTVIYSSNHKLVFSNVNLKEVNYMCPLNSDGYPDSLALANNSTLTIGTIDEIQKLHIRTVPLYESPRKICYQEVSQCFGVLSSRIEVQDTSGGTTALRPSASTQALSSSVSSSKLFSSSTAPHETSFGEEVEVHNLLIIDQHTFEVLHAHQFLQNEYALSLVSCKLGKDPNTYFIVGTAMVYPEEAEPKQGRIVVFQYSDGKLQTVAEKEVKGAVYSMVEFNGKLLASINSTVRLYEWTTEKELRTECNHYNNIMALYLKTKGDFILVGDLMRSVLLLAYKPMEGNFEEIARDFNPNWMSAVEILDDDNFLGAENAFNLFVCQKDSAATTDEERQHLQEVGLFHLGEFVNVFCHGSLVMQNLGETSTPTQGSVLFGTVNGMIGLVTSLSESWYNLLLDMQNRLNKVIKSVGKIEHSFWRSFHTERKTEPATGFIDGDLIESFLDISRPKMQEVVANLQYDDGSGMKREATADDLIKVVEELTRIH

Key:
CRBN = CRBN (Homo sapiens, UniProt Q96SW2); assay: NanoBRET CRBN binding, 293T.116 cells; details: read-out: NanoBRET 293T.116 CRBN 2 hours IC50 nM
SALL4 = SALL4 (Homo sapiens, UniProt Q96SW2+Q9UJQ4); assay: HiBiT degradation assay, KELLY.2 (SALL4-HiBiT) cells; details: for HiBiT-Degradation KELLY.2 SALL4 6 hours Emax: KELLY.2 cells; for DC50: read-out: HiBiT-Degradation KELLY.2 SALL4 6 hours DC50 nM, KELLY.2 cells
IKZF1 = IKZF1 (Homo sapiens, UniProt Q13422+Q96SW2); assay: HiBiT degradation assay, NCIH929.11 (HiBiT-IKZF1) cells; details: for HiBiT-Degradation NCHI929.11 IKZF1 6 hours Emax: NCHI929.11 cells; for DC50: read-out: HiBiT-Degradation NCHI929.11 IKZF1 6 hours DC50 nM, NCHI929.11 cells
GSPT1 = GSPT1 (Homo sapiens, UniProt P15170+Q96SW2); assay: HiBiT degradation assay, 293T.114 cells, GSPT1; details: for DC50: read-out: HiBiT-Degradation 293T.114 GSPT1 6 hours DC50 nM

IC50 (CRBN) | Compound | HiBiT-Degradation KELLY.2 SALL4 6 hours Emax (SALL4) | DC50 (SALL4) | HiBiT-Degradation NCHI929.11 IKZF1 6 hours Emax (IKZF1) | DC50 (IKZF1) | HiBiT-Degradation 293T.114 GSPT1 6 hours Emax (GSPT1) | DC50 (GSPT1)
< 100 nM | Cc1ccc(F)c(CNCc2ccc3c4c(cccc24)N(C2CCC(=O)NC2=O)C3=O)c1 (stereo not shown) | ++++ (<45% = ++++) | < 100 nM | +++ (45-60% = +++) | 1000 to 10000 nM | ++ (60-95% = ++) | > 10000 nM
– | CC(C)(C)OC(=O)N1CCC(C)(n2cc(C(=O)c3ccc4c5c(cccc35)C(=O)N4C3CCC(=O)NC3=O)cn2)CC1 (stereo not shown) | ++++ (<45% = ++++) | < 100 nM | ++++ (<45% = ++++) | < 100 nM | ++ (60-95% = ++) | > 10000 nM
